Publication PMC3490959
Results are given in words; binding and its absence hold for the method and conditions named. A result given as binding can be weak or reduced; the word gives no strength. Sequences can lack the tags named with a protein.

Biological target: T1, Full-length human FLCN fused to LexA (N-FLCN-LexA-C), yeast two-hybrid bait (human) (UniProt Q8NFG4)
T1 sequence: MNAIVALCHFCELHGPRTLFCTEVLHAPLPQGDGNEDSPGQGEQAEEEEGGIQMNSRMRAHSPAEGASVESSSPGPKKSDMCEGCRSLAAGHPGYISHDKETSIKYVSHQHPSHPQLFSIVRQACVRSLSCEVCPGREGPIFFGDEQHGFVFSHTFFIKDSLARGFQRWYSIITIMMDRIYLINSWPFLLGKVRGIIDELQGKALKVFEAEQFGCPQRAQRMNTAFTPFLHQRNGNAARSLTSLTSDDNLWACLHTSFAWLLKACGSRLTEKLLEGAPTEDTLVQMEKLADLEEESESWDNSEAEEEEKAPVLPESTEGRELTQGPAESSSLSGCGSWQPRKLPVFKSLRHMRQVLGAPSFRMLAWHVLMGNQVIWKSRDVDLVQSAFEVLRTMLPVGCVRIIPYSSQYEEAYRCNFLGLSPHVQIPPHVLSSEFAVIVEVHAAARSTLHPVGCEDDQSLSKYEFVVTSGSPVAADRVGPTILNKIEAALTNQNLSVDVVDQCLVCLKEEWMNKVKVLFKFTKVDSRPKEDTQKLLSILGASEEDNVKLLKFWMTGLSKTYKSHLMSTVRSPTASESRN
Experiment: two-hybrid; FLCN-LexA bait (pB29) screened against the Hybrigenics Human Fetal Brain_RP1 library; done by Hybrigenics

Substance: p0071 prey regions from the Hybrigenics Human Fetal Brain_RP1 library (domain or fragment)
- binding: binds
